# Measurements from PMC12040169 (PLOS Biology, 2025).
# The list shows a part of the results.
# Tested on: T1, CTL2-GFP (C. trachomatis L2/434/Bu, GFP-expressing)
# T1 construct: L2/434/Bu, GFP-expressing
# Parameters: species or system HeLa; Intracellular C. trachomatis growth in HeLa cells, bulk GFP fluorescence relative to DMSO
# Settings: bulk GFP, single well; 28.5 h, 10 µM; inhibitor
row,SMILES,% of control remaining [%]
1,O=C1NC(=O)C(CC(=O)N2CCC(Cn3cncn3)(C3CCCCC3)CC2)N1 (stereo not shown) [CBK136808],99.4125
2,Cc1cnc(Cl)c2ncn([C@H]3C[C@@H](O)[C@@H](CO)O3)c12 [CBK201234],163.592
3,O=C(COc1ccccc1[N+](=O)[O-])Nc1cnc(-c2cccc(C(F)(F)F)c2)c(-c2ccco2)n1 [CBK036899],143.953
4,Cc1cc(S(=O)(=O)N2CCN(c3ccc(Cl)cc3)CC2)c(C)cc1Cl [CBK044965],81.2183
5,CC(CCc1ccccc1)NC1CCCc2c1[nH]c1ccc([N+](=O)[O-])cc21 (stereo not shown) [CBK262875],36.4876
6,CCCCSc1nc(N)cc(N2CCOCC(CN(C)C)C2)n1 (stereo not shown) [CBK306659],120.446
7,COc1cc(-c2nccnc2NCc2ccccn2)cc(OC)c1OC [CBK036936],130.359
8,N#CC(c1ccc(O)cc1)N1CCCCC1 (stereo not shown) [CBK028556],140.408
9,COc1ccc2[nH]nc(CN3CCCC(c4cc(O)nc(C)n4)C3)c2c1 (stereo not shown) [CBK306703],95.3598
10,Cc1cc(Cc2ccccc2Cl)cc(C2CCCN(CC(=O)N(C)C)C2)n1 (stereo not shown) [CBK286262],122.797
11,CCc1nn2c(O)cc(C)nc2c1-c1cccs1 [CBK283860],122.565
12,O=C(O)CCC(=O)N1CCN(Cc2ccc(Cl)cc2)CC1 [CBK286852],92.1665
13,NCCNc1ccc(C(=O)Nc2cccc(Cl)c2)cc1[N+](=O)[O-] [CBK263953],78.339
14,COc1ccc(S(=O)(=O)N2CCC(C(=O)O)(c3ccccc3)CC2)cc1 [CBK267572],118.259
15,CCN1C(=O)C2(CC(=O)N(Cc3ccc(OC)c(OC)c3)C2=O)c2cc(C)ccc21 (stereo not shown) [CBK075172],113.359
16,Cc1nc(-c2ccccc2)sc1CNC(=O)CCc1c[nH]c2ccccc12 [CBK092373],100
17,Cc1ccc(C(=O)N2CCC(c3n[nH]c4ncccc34)CC2)s1 [CBK284911],124.709
18,Cc1ccccc1OCc1nnc(SCC(=O)NC2CCCCC2)n1C [CBK265817],100
19,O=C(Nc1nccs1)c1ccc2[nH]ccc2c1 [CBK161731],116.233
20,CCc1nc2c(OCCC3CCCCC3)cccn2c1N(C)C(=O)CC(C)C [CBK147671],111.684

# Ordered by formula weight (ascending): 3 of the compounds above
row,SMILES,% of control remaining [%]
11,CCc1nn2c(O)cc(C)nc2c1-c1cccs1 [CBK283860],122.565
7,COc1cc(-c2nccnc2NCc2ccccn2)cc(OC)c1OC [CBK036936],130.359
14,COc1ccc(S(=O)(=O)N2CCC(C(=O)O)(c3ccccc3)CC2)cc1 [CBK267572],118.259

# Next part:

row,SMILES,% of control remaining [%]
1,O=S(=O)(CCSc1nc2ccccc2s1)c1nc2ccccc2s1 [CBK026908],93.3804
2,Nc1cccc(Sc2ccc(C(F)(F)F)cn2)c1 [CBK089606],93.7051
3,COCCNCCOc1c(Cl)cc(C)cc1Br [CBK265087G],104.712
4,O=C(C[C@@H]1O[C@H](CNCc2cccc(Cl)c2)[C@@H](O)[C@H]1O)N1CCCC1 [CBK288914],140.986
5,COc1ccc([C@@]23CC[C@@H](NC(=O)Nc4ccc(Cl)cc4[N+](=O)[O-])C[C@@H]2N(C)CC3)cc1OC [CBK036474T],102.994
6,COc1cc(/C=N/NC(=O)c2cccc([N+](=O)[O-])c2)cc(OC)c1O [CBK262172],114.586
7,c1cncc(COc2ccnc(N3CCCN(Cc4ccc5c(c4)OCO5)CC3)n2)c1 [CBK084112],116.772
8,COc1ccc(S(=O)(=O)Nc2ccccc2C(=O)Nc2ccc(F)cc2)cc1OC [CBK045404],111.058
9,CN1CCc2c(sc3ncn4nc(-c5ccncc5)nc4c23)C1 [CBK288540],124.766
10,Cc1cc(N2C(=O)NS(=O)(=O)c3cccnc32)ccc1F [CBK288461],126.252
11,Cc1ccc(C2(O)CCN(CCNC(=O)C3CCCCC3)CC2)cc1 [CBK283323],112.922
12,O=C(O)C(Cc1c[nH]cn1)N1C(=O)C2C3C=CC(C3)C2C1=O (stereo not shown) [CBK286705],109.535
13,Cc1nnc(SCCCCSc2nnc(C)n2N)n1N [CBK265686],131.368
14,CCCN1CCC(NC(=O)c2cc(COc3cccc(F)c3)[nH]n2)CC1 [CBK306753],86.2805
15,Cc1nc(COc2ccccc2)nc(O)c1Cl [CBK057810],101.347
16,Cc1ccc(S(=O)(=O)Nc2ccc(Nc3cc(-c4cc(C(F)(F)F)cc(C(F)(F)F)c4)ncn3)cc2)cc1 [CBK090968],170.733
17,Cc1nc(C2CCN(Cc3ccccc3)C2)c2ccccn12 (stereo not shown) [CBK282111],156.396
18,Cc1csc(N2CCN(C(=O)CCc3nc(C(C)C)no3)CC2)n1 [CBK305341],129.2
19,Cn1c(=O)cc(Oc2ccc(F)cc2)c2ccccc21 [CBK281451],127.199
20,Cc1cccc(CN(CC(C)(C)CN)C(=O)NC(C)c2cccc3ccccc23)n1 (stereo not shown) [CBK002423C],101.6
